Experimental data from PubChem BioAssay AID342 (DTP/NCI, 2004).
The list is a part of this screen's results and no random one: it is rich in T/C values a quarter to a half above the control, in often repeated tests (any T/C) and in doses without a T/C. Other doses and runs of a compound stand elsewhere. T/C: endpoint of the treated group in % of that of the vehicle group. Schedule codes are those of the source, taken here to give the interval after Q, in days (D) or hours (H), and the number of doses after X. Some schedules carry Z or #; the key to these is not given. Some entries were tested several times; the values are given in rising order. Some doses have a count of surviving animals in place of a T/C: the source files T/C as zero there, which appears to mark a toxic dose or a test without result, not a measured value. Survivors were counted at the toxicity check, usually on the fifth day, unless a day is given; later deaths do not show.

System: Swiss mice, Sarcoma 180 sc, mean tumor weight T/C
Assay: NCI In Vivo Anticancer Drug Screen. Data for tumor model Sarcoma 180 (subcutaneous) in Swiss mice
Settings: T/C endpoint: mean tumor weight, higher T/C = larger tumour; for T/C: evaluated on day 8
Protocol: The antitumor activity of compounds was measured in mice bearing transplantable tumors. Survival or tumor size were measured and the results are expressed as the measurement made in the treated group (T) divided by the measurement made in the vehicle treated control group (C). The tumor model used in this assay is Sarcoma 180 (subcutaneous) in Swiss mice

## Clc1ccccc1/C=C/C=C1c2ccccc2-c2ccccc21
dose: 1103.0 mg/kg/injection, schedule: Q01DX007 (ip), vehicle: carboxymethylcellulose (CMC)
  survivor count: 0 of 6
dose: 1679.0 mg/kg/injection, schedule: Q01DX007 (ip), vehicle: carboxymethylcellulose (CMC)
  survivor count: 0 of 6
dose: 2506.0 mg/kg/injection, schedule: Q01DX007 (ip), vehicle: carboxymethylcellulose (CMC)
  survivor count: 0 of 6
dose: 3759.0 mg/kg/injection, schedule: Q01DX007 (ip), vehicle: carboxymethylcellulose (CMC)
  survivor count: 0 of 6

## CCOC(=O)Sc1ncnc2nc[nH]c12
dose: 0.8 mg/kg/injection, schedule: Q01DX007 (ip), vehicle: carboxymethylcellulose (CMC)
  T/C: 136 % of control

## CC(=O)OCC(=O)[C@@]1(O)CC[C@H]2[C@@H]3C[C@H](C)C4=CC(=O)C=C[C@]4(C)[C@@]3(F)[C@@H](O)C[C@@]21C
dose: 125.0 mg/kg/injection, schedule: Q01DX007 (sc), vehicle: steroid suspending solution
  survivor count: 2 of 6
dose: 187.0 mg/kg/injection, schedule: Q01DX007 (sc), vehicle: steroid suspending solution
  survivor count: 0 of 6
dose: 281.0 mg/kg/injection, schedule: Q01DX007 (sc), vehicle: steroid suspending solution
  survivor count: 1 of 6

## O=C1C=CC(=O)N1c1ccc2c(c1)C(Br)c1ccccc1-2 (configuration not stated)
dose: 37.5 mg/kg/injection, schedule: Q#A X014 (ip), vehicle: methylcellulose (MC)
  survivor count: 3 of 6

## CO[C@H]1CC[C@@]2(C)[C@@H](CC[C@H]3[C@@H]4C[C@H](O)C[C@@]4(C)CC[C@@H]32)C1
dose: 1.25 mg/kg/injection, schedule: Q#A X014 (ip), vehicle: distilled water + alcohol
  survivor count: 2 of 6
dose: 2.5 mg/kg/injection, schedule: Q#A X014 (ip), vehicle: distilled water + alcohol
  survivor count: 3 of 6
dose: 10.0 mg/kg/injection, schedule: Q#A X014 (ip), vehicle: distilled water + alcohol
  survivor count: 3 of 6
dose: 250.0 mg/kg/injection, schedule: Q#A X014 (ip), vehicle: distilled water + alcohol
  survivor count: 2 of 6

## C=CCOc1ccc2c(c1)CC[C@@H]1[C@@H]2CC[C@]2(C)[C@@H](O)[C@@H](O)C[C@@H]12
dose: 10.0 mg/kg/injection, schedule: Q#A X014 (ip), vehicle: methylcellulose (MC)
  survivor count: 3 of 6

## NC(=O)c1cn(C2OC(CO)C(O)C2O)c2ncnc(N)c12 (configuration not stated)
dose: 0.25 mg/kg/injection, schedule: Q01DX007 (ip), vehicle: carboxymethylcellulose (CMC)
  survivor count: 3 of 6
dose: 1.0 mg/kg/injection, schedule: Q01DX007 (ip), vehicle: carboxymethylcellulose (CMC)
  survivor count: 3 of 6
dose: 2.0 mg/kg/injection, schedule: Q01DX007 (ip), vehicle: carboxymethylcellulose (CMC)
  survivor count: 0 of 6

## CCCCCCCCCCCCCCCCNc1cccc2ccccc12
dose: 375.0 mg/kg/injection, schedule: Q#A X014 (ip), vehicle: methylcellulose (MC)
  survivor count: 1 of 6

## O=C(CCBr)N1CCCN(C(=O)CCBr)CC1
dose: 334.0 mg/kg/injection, schedule: Q01DX007 (ip), vehicle: carboxymethylcellulose (CMC)
  survivor count: 2 of 7

## O=C(Nc1ccc(C2=NCCCN2)cc1)c1ccc(C(=O)Nc2ccc(C3=NCCCN3)cc2)cc1
dose: 3.1 mg/kg/injection, schedule: Q01DX007 (ip), vehicle: water
  survivor count: 0 of 6
dose: 4.0 mg/kg/injection, schedule: Q01DX007 (ip), vehicle: carboxymethylcellulose (CMC)
  T/C: 149 % of control
dose: 4.0 mg/kg/injection, schedule: Q01DX007 (ip), vehicle: water
  survivor count: 1 of 6
dose: 6.3 mg/kg/injection, schedule: Q01DX007 (ip), vehicle: water
  survivor count: 0 of 6
dose: 8.0 mg/kg/injection, schedule: Q01DX007 (ip), vehicle: water
  survivor count: 1 of 6
dose: 12.5 mg/kg/injection, schedule: Q01DX007 (ip), vehicle: water
  survivor count: 0 of 6
dose: 16.0 mg/kg/injection, schedule: Q01DX007 (ip), vehicle: water
  survivor count: 0 of 6
dose: 25.0 mg/kg/injection, schedule: Q01DX007 (ip), vehicle: water
  survivor count: 0 of 6

## O=C(Nc1ccc(C2=NCCN2)cc1)c1cccc(C(=O)Nc2ccc(C3=NCCN3)cc2)c1
dose: 2.4 mg/kg/injection, schedule: Q01DX007 (ip), vehicle: carboxymethylcellulose (CMC)
  T/C: 132 % of control
dose: 18.75 mg/kg/injection, schedule: Q01DX007 (ip), vehicle: carboxymethylcellulose (CMC)
  survivor count: 1 of 6
dose: 30.0 mg/kg/injection, schedule: Q01DX007 (ip), vehicle: carboxymethylcellulose (CMC)
  T/C: 127 % of control
dose: 37.5 mg/kg/injection, schedule: Q01DX007 (ip), vehicle: carboxymethylcellulose (CMC)
  survivor count: 3 of 6
dose: 75.0 mg/kg/injection, schedule: Q01DX007 (ip), vehicle: carboxymethylcellulose (CMC)
  survivor count: 0 of 6
dose: 150.0 mg/kg/injection, schedule: Q01DX007 (ip), vehicle: carboxymethylcellulose (CMC)
  survivor count: 0 of 6
dose: 400.0 mg/kg/injection, schedule: Q01DX007 (ip), vehicle: water
  survivor count: 0 of 6
dose: 480.0 mg/kg/injection, schedule: Q01DX007 (ip), vehicle: water
  survivor count: 0 of 6
dose: 600.0 mg/kg/injection, schedule: Q01DX007 (ip), vehicle: water
  survivor count: 0 of 6

## CS(=O)(=O)OCCC(=O)N1CCN(C(=O)CCOS(C)(=O)=O)CC1
dose: 100.0 mg/kg/injection, schedule: Q#A X014 (ip), vehicle: methylcellulose (MC)
  survivor count: 2 of 6 and 3 of 6
dose: 200.0 mg/kg/injection, schedule: Q01DX007 (ip), vehicle: saline
  survivor count: 4 of 7

## COCCOC1=C(N2CC2)C(=O)C(OCCOC)=C(N2CC2)C1=O
dose: 0.4 mg/kg/injection, schedule: Q01DX007 (sc), vehicle: saline
  survivor count: 0 of 6
dose: 0.59 mg/kg/injection, schedule: Q01DX007 (sc), vehicle: saline
  survivor count: 0 of 6
dose: 0.89 mg/kg/injection, schedule: Q01DX001 (ip), vehicle: saline
  T/C: 129 % of control
dose: 0.89 mg/kg/injection, schedule: Q01DX007 (sc), vehicle: saline
  survivor count: 0 of 6
dose: 1.3 mg/kg/injection, schedule: Q01DX001 (ip), vehicle: saline
  T/C: 145 % of control
dose: 1.3 mg/kg/injection, schedule: Q01DX007 (sc), vehicle: saline
  survivor count: 0 of 6
dose: 4.0 mg/kg/injection, schedule: Q01DX007 (im), vehicle: saline
  survivor count: 3 of 6
dose: 4.0 mg/kg/injection, schedule: Q01DX007 (ip), vehicle: saline
  survivor count: 3 of 6
dose: 4.0 mg/kg/injection, schedule: Q01DX007 (sc), vehicle: saline
  survivor count: 2 of 6
dose: 6.0 mg/kg/injection, schedule: Q01DX001 (ip), vehicle: saline
  survivor count: 2 of 6
dose: 6.0 mg/kg/injection, schedule: Q01DX006 (iv), vehicle: saline
  survivor count: 0 of 6
dose: 6.0 mg/kg/injection, schedule: Q01DX007 (im), vehicle: saline
  survivor count: 1 of 6
dose: 6.0 mg/kg/injection, schedule: Q01DX007 (ip), vehicle: saline
  survivor count: 0 of 6
dose: 6.0 mg/kg/injection, schedule: Q01DX007 (sc), vehicle: saline
  survivor count: 1 of 6
dose: 10.0 mg/kg/injection, schedule: Q01DX006 (iv), vehicle: saline
  survivor count: 0 of 6
dose: 10.0 mg/kg/injection, schedule: Q01DX007 (im), vehicle: saline
  survivor count: 0 of 6
dose: 10.0 mg/kg/injection, schedule: Q01DX007 (ip), vehicle: saline
  survivor count: 0 of 6
dose: 10.0 mg/kg/injection, schedule: Q01DX007 (sc), vehicle: saline
  survivor count: 0 of 6
dose: 12.0 mg/kg/injection, schedule: Q01DX001 (ip), vehicle: saline
  survivor count: 0 of 6
dose: 16.0 mg/kg/injection, schedule: Q01DX007 (oral), vehicle: saline
  survivor count: 3 of 6
dose: 24.0 mg/kg/injection, schedule: Q01DX007 (oral), vehicle: saline
  survivor count: 0 of 6
dose: 40.0 mg/kg/injection, schedule: Q01DX007 (oral), vehicle: saline
  survivor count: 0 of 6

## COC12C(COC(N)=O)C3=C(C(=O)C(C)=C(N)C3=O)N1CC1C2N1C (configuration not stated)
dose: 5.0 mg/kg/injection, schedule: Q#A X014 (ip), vehicle: carboxymethylcellulose (CMC)
  T/C: 55, 64, 80, 84 % of control
dose: 10.0 mg/kg/injection, schedule: Q#A X014 (ip), vehicle: carboxymethylcellulose (CMC)
  T/C: 28, 29, 30, 44, 49 % of control
